{"source": "patent US20140271584A1", "about": "“Methods and Compositions for Direct Reprogramming of Somatic Cells to Stem Cells, and Uses of these Cells” (THE RESEARCH FOUNDATION FOR THE STATE UNIVERSITY OF NEW YORK, priority 2013, published 2014)", "tested_on": "AF cells", "assay": "Reprogramming of OCT4 or SOX2 lentivirus-transduced AF cells (colony growth)", "type": "cell-based, human", "details": "0.1 mM added to culture medium; sentence names it together with TGF-β receptor I inhibitor II", "note": "Some results were stated once for a whole list of compounds, not compound by compound."}
{"molecule": "Nc1ncnc2c1nc(Br)n2[C@@H]1O[C@@H]2COP(=O)(O)O[C@H]2[C@H]1O", "note": "[8-Br-cAMP, (1S,6R,8R,9R)-8-(6-amino-8-bromopurin-9-yl)-3-hydroxy-3-oxo-2,4,7-trioxa-3λ5-phosphabicyclo[4.3.0]nonan-9-ol]", "values": [{"measurement": "enhancement of reprogramming efficiency", "result": "10-15%"}]}
